In this assay the target is FLAG-tagged GRB7 (growth factor receptor-bound protein 7) (UniProt Q14451). In words: affinity purification with mass spectrometry; HCT116 cells expressing FLAG-GRB7 against control cells; anti-FLAG antibody-conjugated beads, precipitates analysed by MS; proteins enriched at least threefold.

By UniProt entry, the sequences of proteins in these tests, tags left out.
UniProt P53350: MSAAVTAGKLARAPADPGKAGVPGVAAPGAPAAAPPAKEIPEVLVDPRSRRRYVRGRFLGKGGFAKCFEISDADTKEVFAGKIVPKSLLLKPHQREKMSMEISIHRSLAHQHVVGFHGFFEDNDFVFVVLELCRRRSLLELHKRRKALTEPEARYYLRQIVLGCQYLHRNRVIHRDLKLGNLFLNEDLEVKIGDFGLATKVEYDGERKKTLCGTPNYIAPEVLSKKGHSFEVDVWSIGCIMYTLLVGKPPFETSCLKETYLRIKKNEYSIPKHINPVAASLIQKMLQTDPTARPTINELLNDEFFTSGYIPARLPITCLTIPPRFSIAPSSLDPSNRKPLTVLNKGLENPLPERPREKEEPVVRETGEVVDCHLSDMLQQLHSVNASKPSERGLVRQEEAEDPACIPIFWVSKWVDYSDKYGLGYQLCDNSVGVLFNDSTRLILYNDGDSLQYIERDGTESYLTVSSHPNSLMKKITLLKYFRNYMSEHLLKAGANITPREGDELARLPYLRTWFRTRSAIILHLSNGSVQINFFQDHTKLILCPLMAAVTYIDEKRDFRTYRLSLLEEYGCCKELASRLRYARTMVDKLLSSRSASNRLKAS
UniProt Q8N122: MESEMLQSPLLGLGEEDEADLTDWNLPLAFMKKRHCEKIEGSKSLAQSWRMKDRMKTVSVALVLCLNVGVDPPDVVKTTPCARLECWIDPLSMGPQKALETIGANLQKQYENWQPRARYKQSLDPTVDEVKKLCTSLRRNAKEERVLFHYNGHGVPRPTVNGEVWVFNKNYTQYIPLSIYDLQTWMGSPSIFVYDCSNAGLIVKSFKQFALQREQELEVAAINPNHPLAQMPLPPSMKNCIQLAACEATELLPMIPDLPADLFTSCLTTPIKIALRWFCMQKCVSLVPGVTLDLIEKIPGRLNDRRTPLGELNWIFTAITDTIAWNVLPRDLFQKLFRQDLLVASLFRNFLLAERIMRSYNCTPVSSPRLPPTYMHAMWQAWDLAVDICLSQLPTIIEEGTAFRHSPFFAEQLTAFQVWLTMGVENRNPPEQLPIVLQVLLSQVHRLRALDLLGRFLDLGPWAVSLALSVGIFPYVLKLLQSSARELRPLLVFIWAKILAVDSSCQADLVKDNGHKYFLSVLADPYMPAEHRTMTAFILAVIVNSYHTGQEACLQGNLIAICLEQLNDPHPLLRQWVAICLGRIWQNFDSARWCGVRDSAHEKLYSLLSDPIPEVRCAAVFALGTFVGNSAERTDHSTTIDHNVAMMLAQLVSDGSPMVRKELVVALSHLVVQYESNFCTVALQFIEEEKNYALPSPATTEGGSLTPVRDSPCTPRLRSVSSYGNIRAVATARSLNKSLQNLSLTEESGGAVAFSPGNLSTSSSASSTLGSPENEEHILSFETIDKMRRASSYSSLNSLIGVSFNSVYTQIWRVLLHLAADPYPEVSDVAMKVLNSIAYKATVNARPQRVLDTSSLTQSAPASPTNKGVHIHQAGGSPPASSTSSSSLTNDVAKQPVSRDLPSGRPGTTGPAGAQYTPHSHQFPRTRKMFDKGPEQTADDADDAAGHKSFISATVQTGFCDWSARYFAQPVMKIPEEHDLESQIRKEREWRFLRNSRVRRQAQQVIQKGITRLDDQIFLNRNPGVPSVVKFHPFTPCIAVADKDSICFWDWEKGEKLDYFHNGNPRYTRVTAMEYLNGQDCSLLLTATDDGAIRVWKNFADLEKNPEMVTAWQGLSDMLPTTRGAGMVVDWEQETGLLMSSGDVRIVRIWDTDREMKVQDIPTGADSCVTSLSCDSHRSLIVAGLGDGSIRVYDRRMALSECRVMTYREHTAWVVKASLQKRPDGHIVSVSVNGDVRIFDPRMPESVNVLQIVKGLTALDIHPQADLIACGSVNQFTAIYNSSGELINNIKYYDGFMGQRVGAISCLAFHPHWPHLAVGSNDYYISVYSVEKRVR

No constants are given. Whether binding was seen depends on the method and setting. Binding seen in cells or lysates may run through a third protein. These calls come from enrichment with a bait or labelling near it, and not all partners need be listed.

“polo-like kinase-1 (PLK1) (from UniProt P53350 1-603) (enzyme)”: the binding result is “binds”. Regarding “regulatory associated protein of mTOR complex 1 (RPTOR) (from UniProt Q8N122 1-1335)”, the binding result was “binds”.

The record behind these values is publication PMC8732282.
